In article PMC1769425:
Results are given in words; binding and its absence hold for the method and conditions named. Some entries that bind do so weakly or less than the wild type. Where a sequence is shown, tags or fusion partners need not be part of it.

Chains of the proteins cited; added tags and fusions are not shown.
UniProt P70039: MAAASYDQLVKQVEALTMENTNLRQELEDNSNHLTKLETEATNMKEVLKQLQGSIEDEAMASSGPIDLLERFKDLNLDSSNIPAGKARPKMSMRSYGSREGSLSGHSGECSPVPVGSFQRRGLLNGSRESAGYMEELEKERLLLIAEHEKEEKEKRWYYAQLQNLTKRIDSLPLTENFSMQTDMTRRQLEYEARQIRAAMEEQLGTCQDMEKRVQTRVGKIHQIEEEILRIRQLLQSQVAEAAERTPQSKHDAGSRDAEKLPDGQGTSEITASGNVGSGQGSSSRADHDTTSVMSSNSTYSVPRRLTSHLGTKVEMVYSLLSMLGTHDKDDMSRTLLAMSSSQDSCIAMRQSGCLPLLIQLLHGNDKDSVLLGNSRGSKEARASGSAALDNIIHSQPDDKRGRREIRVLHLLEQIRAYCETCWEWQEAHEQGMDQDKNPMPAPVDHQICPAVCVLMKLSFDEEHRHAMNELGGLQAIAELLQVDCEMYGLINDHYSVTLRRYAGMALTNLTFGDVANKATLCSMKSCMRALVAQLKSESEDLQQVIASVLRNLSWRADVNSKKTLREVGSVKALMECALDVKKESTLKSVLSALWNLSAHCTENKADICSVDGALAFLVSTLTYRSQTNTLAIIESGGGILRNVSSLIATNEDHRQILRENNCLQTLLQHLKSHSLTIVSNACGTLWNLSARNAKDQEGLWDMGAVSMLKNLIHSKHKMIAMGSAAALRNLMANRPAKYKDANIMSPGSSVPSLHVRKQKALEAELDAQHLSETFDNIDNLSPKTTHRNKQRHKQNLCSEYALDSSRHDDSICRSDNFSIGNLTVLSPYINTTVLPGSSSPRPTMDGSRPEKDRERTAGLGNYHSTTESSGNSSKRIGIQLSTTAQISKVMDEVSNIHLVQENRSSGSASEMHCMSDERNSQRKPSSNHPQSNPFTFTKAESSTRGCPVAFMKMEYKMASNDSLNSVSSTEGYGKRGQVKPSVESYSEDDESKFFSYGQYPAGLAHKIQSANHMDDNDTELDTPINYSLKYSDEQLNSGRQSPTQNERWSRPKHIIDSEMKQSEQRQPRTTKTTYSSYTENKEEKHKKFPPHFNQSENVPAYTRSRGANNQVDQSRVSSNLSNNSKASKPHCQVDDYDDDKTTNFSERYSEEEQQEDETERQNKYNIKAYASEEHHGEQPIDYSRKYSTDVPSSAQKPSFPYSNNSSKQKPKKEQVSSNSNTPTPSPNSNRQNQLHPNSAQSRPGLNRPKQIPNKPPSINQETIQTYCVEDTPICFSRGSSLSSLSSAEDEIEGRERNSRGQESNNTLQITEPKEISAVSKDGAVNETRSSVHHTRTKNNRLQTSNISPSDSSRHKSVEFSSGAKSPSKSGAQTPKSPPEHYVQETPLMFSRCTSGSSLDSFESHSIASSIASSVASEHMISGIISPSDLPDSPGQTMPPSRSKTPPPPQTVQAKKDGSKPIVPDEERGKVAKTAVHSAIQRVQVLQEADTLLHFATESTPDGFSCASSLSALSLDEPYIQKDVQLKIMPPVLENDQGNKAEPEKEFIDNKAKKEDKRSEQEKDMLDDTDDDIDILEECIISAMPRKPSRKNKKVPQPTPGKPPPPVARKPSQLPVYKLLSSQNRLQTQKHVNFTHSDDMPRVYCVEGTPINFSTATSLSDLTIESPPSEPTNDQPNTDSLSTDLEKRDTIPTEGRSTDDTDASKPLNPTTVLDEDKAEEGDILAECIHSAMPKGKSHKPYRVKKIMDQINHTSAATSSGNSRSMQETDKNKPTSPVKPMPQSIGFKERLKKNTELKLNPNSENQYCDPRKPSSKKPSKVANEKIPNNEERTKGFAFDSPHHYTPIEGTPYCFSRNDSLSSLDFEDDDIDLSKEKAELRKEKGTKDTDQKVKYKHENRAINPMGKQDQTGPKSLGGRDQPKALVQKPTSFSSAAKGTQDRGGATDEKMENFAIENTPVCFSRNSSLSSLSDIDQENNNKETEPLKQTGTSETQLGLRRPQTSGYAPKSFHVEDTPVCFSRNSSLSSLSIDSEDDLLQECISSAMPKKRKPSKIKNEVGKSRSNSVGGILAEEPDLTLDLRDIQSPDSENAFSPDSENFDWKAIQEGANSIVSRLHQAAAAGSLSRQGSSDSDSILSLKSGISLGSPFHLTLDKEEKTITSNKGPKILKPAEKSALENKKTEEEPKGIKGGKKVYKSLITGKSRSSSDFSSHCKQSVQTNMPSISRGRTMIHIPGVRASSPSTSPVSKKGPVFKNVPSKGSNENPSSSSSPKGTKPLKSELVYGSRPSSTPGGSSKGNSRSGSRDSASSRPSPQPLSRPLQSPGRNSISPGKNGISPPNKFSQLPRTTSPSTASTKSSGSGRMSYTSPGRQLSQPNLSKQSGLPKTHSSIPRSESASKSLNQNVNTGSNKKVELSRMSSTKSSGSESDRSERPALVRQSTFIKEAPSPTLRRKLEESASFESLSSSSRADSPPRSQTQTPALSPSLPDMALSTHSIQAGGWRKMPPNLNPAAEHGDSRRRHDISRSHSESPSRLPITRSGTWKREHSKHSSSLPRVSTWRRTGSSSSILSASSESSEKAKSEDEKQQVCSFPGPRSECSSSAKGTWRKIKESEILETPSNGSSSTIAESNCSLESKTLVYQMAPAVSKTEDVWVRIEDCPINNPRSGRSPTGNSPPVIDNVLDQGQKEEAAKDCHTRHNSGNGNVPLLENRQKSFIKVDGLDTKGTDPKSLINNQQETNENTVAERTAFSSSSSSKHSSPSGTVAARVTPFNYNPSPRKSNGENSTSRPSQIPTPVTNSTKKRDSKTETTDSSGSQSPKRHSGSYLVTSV

Biological target: full-length APC, endogenous in Xenopus egg extract (X. laevis (endogenous in egg extract)) (UniProt P70039)
Assay: visual immunoprecipitation (VIP); interphase X. laevis egg extract, pretreated with 40 μM nocodazole; bait (endogenous, or recombinant fragment added to the extract) held on antibody-coated protein-A magnetic beads; fluorescent recombinant prey added at near endogenous concentration (e.g. 500 nM), 15 min at 20 °C; confocal read-out, IgG control beads subtracted; only the binder purified

binding: binds
B1: XKCM1-EGFP (protein, UniProt Q91636 1-730)
chain: MERLVATRLVTGLAVKIMRSNGVIHNANITSVNMDRSSVNVEWKEGEANKGKEISFADVISVNPELLDAVLAPTNVKENMPPQRNVSSQNHKRKTISKIPAPKEVAAKNSLLSESGAQSVLRERSTRMTAIHETLPYENEMEAESTPLPIQQNSVQARSRSTKVSIAEEPRLQTRISEIVEESLPSGRNNQGRRKSNIVKEMEKMKNKREEQRAQNYERRMKRAQDYDTSVPNWEFGKMIKEFRATMDCHRISMADPAEEHRICVCVRKRPLNKQELSKKEIDIISVPSKNIVLVHEPKLKVDLTKYLENQAFRFDFSFDETATNEVVYRFTARPLVQSIFEGGKATCFAYGQTGSGKTHTMGGDFSGKSQNVSKGVYAFASRDVFLLLDQPRYKHLDLDVFVTFFEIYNGKVFDLLNKKTKLRVLEDAKQEVQVVGLLEKQVISADDVFKMIEIGSACRTSGQTFANTSSSRSHACLQIILRRGSKLHGKFSLVDLAGNERGVDTASADRITRMEGAEINRSLLALKECIRALGQNKSHTPFRESKLTQILRDSFIGENSRTCMIAMLSPGFNSCEYTLNTLRYADRVKELSPQNAETNDDNLQMEDSGGSHASIEGLQLQDDFLLKDEELSTHNSFQDALNRVGELEDKAVDELRELVQKEPEWTNLLQMTEQPDYDLENFVMQAEYLIQERSKVLIALGDSINSLRLALQVEEQASKQISKKKRSNK
